In PubChem BioAssay AID651768 (National Center for Advancing Translational Sciences (NCATS), 2012):
Screen size: about 360,000 compounds; about 1,700 (0.47%) were called active. Inconclusive results, whose numbers are uncertain, are shown with a selection of clear calls. The call rests on the fitted dose curve; in most records, active means well fitted inhibition curve with a large enough effect; inconclusive means small, poorly fitted or top-dose-only effect; inactive means no such curve, though single readings can be large or run the other way. Potencies beside an inconclusive call are fits to weak or partial responses and may not hold up.
Further: nearly all actives have a fitted effect of over 55% in size.
On the % scale 0 is the no-effect control and ±100 the full control effect; potency means the concentration at half of the fitted maximal effect.

Sequences of proteins named here, by UniProt entry; tags and fusion partners are left off.
UniProt Q14191, whole entry, looked up: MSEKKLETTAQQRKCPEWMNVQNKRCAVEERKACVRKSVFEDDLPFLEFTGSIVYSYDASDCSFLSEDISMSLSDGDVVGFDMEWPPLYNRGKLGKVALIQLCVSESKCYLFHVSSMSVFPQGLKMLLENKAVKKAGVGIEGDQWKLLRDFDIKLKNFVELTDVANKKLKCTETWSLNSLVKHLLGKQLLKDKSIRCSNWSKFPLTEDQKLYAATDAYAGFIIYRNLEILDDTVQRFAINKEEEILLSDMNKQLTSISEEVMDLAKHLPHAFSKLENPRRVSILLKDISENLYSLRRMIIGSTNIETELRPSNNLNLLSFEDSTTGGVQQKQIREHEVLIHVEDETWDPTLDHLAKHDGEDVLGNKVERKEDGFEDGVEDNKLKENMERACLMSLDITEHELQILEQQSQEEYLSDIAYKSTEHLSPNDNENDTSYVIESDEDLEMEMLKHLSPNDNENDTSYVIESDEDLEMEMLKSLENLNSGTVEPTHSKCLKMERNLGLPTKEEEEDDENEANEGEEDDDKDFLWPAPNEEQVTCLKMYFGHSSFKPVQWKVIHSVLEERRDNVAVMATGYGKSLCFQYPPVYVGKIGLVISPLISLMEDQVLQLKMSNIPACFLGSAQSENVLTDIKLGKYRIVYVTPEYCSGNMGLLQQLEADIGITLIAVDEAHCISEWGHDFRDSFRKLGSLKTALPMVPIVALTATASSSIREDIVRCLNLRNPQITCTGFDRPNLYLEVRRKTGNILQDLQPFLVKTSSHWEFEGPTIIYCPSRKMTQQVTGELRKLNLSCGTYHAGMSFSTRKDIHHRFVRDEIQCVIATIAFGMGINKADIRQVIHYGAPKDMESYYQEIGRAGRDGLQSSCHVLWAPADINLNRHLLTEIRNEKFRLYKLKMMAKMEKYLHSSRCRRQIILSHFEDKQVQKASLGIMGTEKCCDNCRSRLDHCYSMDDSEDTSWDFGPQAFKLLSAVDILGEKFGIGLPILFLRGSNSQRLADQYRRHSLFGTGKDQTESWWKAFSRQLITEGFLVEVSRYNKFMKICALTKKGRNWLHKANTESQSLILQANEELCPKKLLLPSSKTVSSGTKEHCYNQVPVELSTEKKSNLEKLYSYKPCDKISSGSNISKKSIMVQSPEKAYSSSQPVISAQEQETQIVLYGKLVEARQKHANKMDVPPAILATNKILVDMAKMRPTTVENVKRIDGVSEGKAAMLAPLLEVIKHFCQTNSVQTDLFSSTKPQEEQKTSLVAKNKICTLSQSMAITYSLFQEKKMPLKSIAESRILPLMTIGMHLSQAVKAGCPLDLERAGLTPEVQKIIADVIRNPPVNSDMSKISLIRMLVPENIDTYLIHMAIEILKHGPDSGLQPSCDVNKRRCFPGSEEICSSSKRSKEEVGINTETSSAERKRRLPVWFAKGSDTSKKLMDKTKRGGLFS

What follows are compounds tested against Bifunctional 3'-5' exonuclease/ATP-dependent helicase WRN (Homo sapiens) (UniProt Q14191) (assay: qHTS for Inhibitors of WRN Helicase). Conditions: WRN helicase unwinding, fluorescent forked duplex, kinetic; activity change, negative = inhibition: at 114 µM (top of the series) unless noted.
Method in brief: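 Kinetic red-fluorescence monitoring (525/598 nm) tracks WRN helicase activity after 100 nM fluorophore-quencher forked duplex and 2 mM ATP are added to 20 nM enzyme pretreated 15 min at room temperature with compound.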
For `CCN(CC)c1ccc(/C=N/NC(=O)c2nnn(-c3nonc3N)c2C(C)C)c(O)c1`, the Potency was inconclusive: 20 µM [inhibitor, single point].
For `COc1cccc(/C=N/N2C(=O)CSC2=S)c1O`, the Potency was inconclusive: 56.2 µM [inhibitor, partial curve].
In the case of `CCN(c1ccccc1)S(=O)(=O)c1ccc(C(=O)NCCCN2CCOCC2)cc1`, the “activity change, negative = inhibition” value was inactive: 8.64%.
With `COc1ccc(C2C(C#N)=C(N)Nc3nc4ccccc4n32)cc1` (stereo not drawn) the Potency was inconclusive: 20 µM [inhibitor, single point].
`CCOCC(=O)Nc1nnc(COc2ccc(Cl)cc2)s1` was tested, and the Potency was inconclusive: 56.2 µM [inhibitor, partial curve, poor fit].
`O=C(c1cc(-c2ccc(O)cc2)on1)N1CCN(c2ccc(F)cc2)CC1` was tested, and the “activity change, negative = inhibition” value was inactive: -4.52%.
`COc1cc(-c2c(C#N)c(=O)[nH]c3c2c(C)nn3-c2ccccc2)ccc1O` was tested, and the Potency was inconclusive: 31.6 µM [inhibitor, partial curve].
`COc1ccc(C(C[N+](=O)[O-])c2c(C)[nH]n(-c3ccccc3)c2=O)cc1` (stereo not drawn) was tested, and the Potency was inconclusive: 4.23 µM [inhibitor, single point].
In the case of `CCOc1ccc(NC(=O)CN(C)C(=O)C2CCN(c3ncnc4sc(C)c(C)c34)CC2)cc1OCC`, the Potency was inconclusive: 79.4 µM [inhibitor, single point].
For `COc1ccc(Cl)cc1NC(=S)N(CCCN1CCOCC1)Cc1cn(C)c2ccccc12`, the Potency was inconclusive: 10 µM [inhibitor, partial curve].
With `Cc1csc2c(=O)sc(NC(=O)c3cccs3)nc12` the Potency was inconclusive: 50.1 µM [inhibitor, partial curve].
For `CC1=C(C)/C(=N\OS(=O)(=O)c2ccc(C)cc2)C=CC1=O`, the Potency was inconclusive: 50.1 µM [inhibitor, partial curve].
For `Cn1c(Cc2ccccc2)nnc1SCC(=O)c1ccc(Br)s1`, the “activity change, negative = inhibition” value was inactive: 5.78%.
`CCOc1cc(/C=C(/C#N)c2nc3ccccc3[nH]2)ccc1OCc1ccc(C(=O)O)o1` was tested, and the Potency was inconclusive: 63.1 µM [inhibitor, partial curve].
With `C/C=C\C=C/C(=O)Nc1cccc(C2=NOC3(C2)C[C@@H](C(N)=O)N(C(=O)/C=C/CC)C3)c1` (stereo partly drawn) the Potency was inconclusive: 56.2 µM [inhibitor, partial curve].
In the case of `O=C(COC(=O)/C=C/c1ccco1)Nc1ncc(C(F)(F)F)cc1Cl`, the Potency was inconclusive: 15 µM [inhibitor, partial curve].
In the case of `Cc1ccc(C(C[N+](=O)[O-])n2nc(C)cc2C)cc1` (stereo not drawn), the Potency was inconclusive: 100 µM [inhibitor, partial curve].
`O=C(Nc1ccc(Cl)cc1)N1CCc2[nH]c3ccccc3c2C1` was tested, and the Potency was inconclusive: 2.82 µM [inhibitor, partial curve, poor fit].
